Laboratory results as given in the supplement of paper PMC10735217.
Several values for one entry are separate records, joined by “and”; a condition that tells them apart may be missing. Equal entries are not always repeated. This is one part of the list. Repeats in this data set agree poorly, so a single value says little.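 Human kidney-derived cells stably carry a construct in which eight TEAD-binding elements drive luciferase, measured by luminescence in a drug-repurposing library screen. A hit is any compound whose signal exceeds the plate mean by more than five robust Z scores.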

Tested on: HEK293A TEAD-LUC reporter
Assay: TEAD-luciferase reporter activity (YAP activation), robust Z score vs plate; higher = stronger YAP/TEAD activation
Conditions: 24 h

Measured: TEAD-luciferase reporter activity

Clc1ccc2c(c1)C(c1ccccc1Cl)=NCc1nncn1-2
inactive: compound concentration: 200 nM 2.2 | compound concentration: 2 uM -1.8 | compound concentration: 10 uM 0.317

CN(C)C(=O)Oc1cc(OC(=O)N(C)C)cc(C(O)CNC(C)(C)C)c1 (stereo not given) [levobambuterol]
inactive: compound concentration: 200 nM 0.171 | compound concentration: 2 uM -0.981 | compound concentration: 10 uM 0.303

CCC(Sc1ccccc1)C(=O)O[C@H]1C[C@H]2CC[C@@H](C1)N2C (stereo not given in full)
inactive: compound concentration: 200 nM -0.722 | compound concentration: 2 uM -1.54 | compound concentration: 10 uM 0.843

O=C(Nc1c(Cl)cncc1Cl)C(=O)c1cn(Cc2ccc(F)cc2)c2ccc(O)cc12
inactive: compound concentration: 200 nM -1.2 | compound concentration: 2 uM 1.2 and -0.346 | compound concentration: 10 uM 3.61

C=CCN1C[C@H](C)N([C@H](c2ccc(C(=O)N(CC)CC)cc2)c2cccc(OC)c2)C[C@H]1C
inactive: compound concentration: 200 nM -0.914 | compound concentration: 2 uM -0.142 | compound concentration: 10 uM 2.1

C[C@H]1[C@H](N2CCS(=O)(=O)CC2)O[C@@H]2O[C@@]3(C)CC[C@H]4[C@H](C)CC[C@@H]1[C@@]24OO3
inactive: compound concentration: 200 nM -0.488 | compound concentration: 2 uM -2.36 | compound concentration: 10 uM -0.913

C=C(Br)CC1(C(C)C)C(=O)NC(=O)NC1=O
inactive: compound concentration: 200 nM -1.03 | compound concentration: 2 uM -0.554 | compound concentration: 10 uM -0.419

CCC(=O)O[C@](Cc1ccccc1)(c1ccccc1)[C@@H](C)CN(C)C
inactive: compound concentration: 200 nM -0.596 | compound concentration: 2 uM -0.598 | compound concentration: 10 uM 1.83

CCOC(=O)CCN(c1nc(-c2ccc(/C(N)=N\C(=O)OCC)cc2)cs1)C1CCN(CC(=O)OCC)CC1
inactive: compound concentration: 200 nM -0.191 | compound concentration: 2 uM -0.667 | compound concentration: 10 uM 3.25

CC(C)[C@H]1C(=O)O[C@H](C(C)C)C(=O)N(C)[C@@H](C(C)C)C(=O)O[C@H](C(C)C)C(=O)N(C)[C@@H](C(C)C)C(=O)O[C@H](C(C)C)C(=O)N1C [Enniatin B]
inactive: compound concentration: 200 nM -0.811 | compound concentration: 2 uM -0.0519 | compound concentration: 10 uM -3
